Values of other authors as cited in patent US8278437B2, “Hydroxypropyl-sulfobutyl-beta-cyclodextrin, the preparation method, the analytical method, and the pharmacutical application thereof” (priority 2005, dated 2012).
Read-outs that look alike come from different tables or passages of the source.

Test system: mouse
Settings: cited from earlier work

CC(=O)N(C)C [DMA]
LD50 (Oral): 4620 mg/kg
LD50 (intraperitoneal injection): 3200 mg/kg
LD50 (intravenous injection): 3020 mg/kg
